Experimental data reported in PubChem BioAssay AID651664 (NMMLSC, 2012).
Screen size: about 1,800 compounds; fewer than 10 were called active.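 The calls were made as follows: active = inhibition of granule release above a set limit; inactive = the rest.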 Some of the results follow.

Assay: LAMP-1 surface externalization blockers in TALL-104 cells – cell-based, flow cytometry, validation set (AID 651664)
Conditions: TALL-104 LAMP-1 externalization, at 15.2 µM, hits give high values

SMILES	inhibition
COc1ccc2c(CCN)c[nH]c2c1	inactive: 2.4%
O=C1C2CCN(CC2)C1Cc1ccc(OCCOc2ccccc2)cc1 (stereo not drawn)	inactive: 6.8%
Cc1ccc(OCC(=O)N2CCN(CC3CC4C=CC3C4)CC2)cc1 (stereo not drawn)	inactive: 0.4%
COCCCNC(=O)c1c(NC(=O)c2ccco2)n(Cc2ccccc2)c2nc3ccccc3nc12	inactive: -0.5%
O=C(c1cc(=O)[nH]c2ccc(Br)cc12)N1CCC2(CC1)OCCO2	inactive: -3.6%
CCCCOP(=O)(OCCCC)/C(C#N)=C(/C)O	inactive: 4.1%
COc1ccc(Cn2c(N)c(C(=O)NCc3ccco3)c3nc4ccccc4nc32)cc1OC	inactive: -2.6%
CCN1CC=C(c2c[nH]c3ccccc23)CC1	inactive: 4.8%
CCCN1CCC2(CC1)NC(CO)(CO)CO2	inactive: 1.2%
Cc1ccc(-n2c(-c3cccs3)nc3ccccc3c2=O)cc1	inactive: 1%
Cc1cc(NC(=O)COC(=O)c2c(C)nn(Cc3ccccc3)c2C)no1	inactive: 5.5%
Cc1ccc(-c2nc3ccc(Cl)cc3n2OC(=O)N(C)C)cc1	inactive: -1.1%
CCOC(=O)C1=C(C)N(C)C2(C)CC1c1ccccc1O2 (stereo not drawn)	inactive: 2.1%
C=CCn1c(O)c(C(C)=NCCCO)c(=O)[nH]c1=O	inactive: -5.1%
Cc1ccc2nc(N3CCC(C(=O)N4CCC5(CC4)OCCO5)CC3)sc2c1	inactive: -2.7%
COP(=O)(OC)C1(Nc2ccc(C)cc2)CCCCC1	inactive: -1.3%
CC(Cc1ccccc1)NC(=O)NC(C)Cc1ccccc1 (stereo not drawn)	inactive: -0.4%
Nc1c(C(=O)NCCN2CCOCC2)c2nc3ccccc3nc2n1Cc1ccco1	inactive: 1.8%
Cc1ccc(C(=O)C2CN3CCC2CC3)cc1 (stereo not drawn)	inactive: -2.9%
Cc1ccc(S(=O)(=O)N(C)CCCC(=O)N2CCN(c3ccccn3)CC2)cc1	inactive: 3.2%
Cc1cccc(N2C(=O)/C(=C/N3CCN(C(=O)c4ccco4)CC3)C(=O)NC2=S)c1	inactive: -2.5%
Cc1nn(Cc2ccccc2)c(C)c1C(=O)OCC(=O)NCc1ccco1	inactive: -1.6%

As entered above.
inhibition with CCCCOP(=O)(OCCCC)/C(C#N)=C(/C)O is entered as inactive: 4.1%
inhibition with COc1ccc(Cn2c(N)c(C(=O)NCc3ccco3)c3nc4ccccc4nc32)cc1OC is entered as inactive: -2.6%

Later entries:

SMILES	inhibition
CCOC(=O)c1ccc(NC(=O)c2c(O)[nH]c(=O)[nH]c2=O)cc1	inactive: -0.6%
CCOc1ccc(-n2c(O)c(C=Nc3ccc(N4CCOCC4)cc3)c(=O)[nH]c2=O)cc1	inactive: 0.2%
CN(C)C(=O)On1c(-c2ccccc2)nc2ccc(Cl)cc21	inactive: -1.5%
O=C(CF)NC(Nc1cccc2cccnc12)C(Cl)(Cl)Cl (stereo not drawn)	inactive: -0.5%
CCC(=O)Nc1ccc(N2CCN(CC)CC2)c(Cl)c1	inactive: -3.3%
Cc1ccccc1-n1c(O)c(C=NCCN2CCOCC2)c(=O)[nH]c1=O	inactive: 1.3%
CCN1CCC(O)(c2ccccc2)C(C(=O)c2ccccc2)C1 (stereo not drawn)	inactive: -3%
Cc1cccc(OCC(=O)N2CCN(Cc3ccncc3)CC2)c1	inactive: -3.4%
O=C1NC(=S)N(c2ccc(Cl)cc2)C(=O)/C1=C/N1CCN(C(=O)c2ccco2)CC1	inactive: -2.7%
CCCCCn1c(=O)c(C(=O)NCc2ccncc2)c(O)c2ccccc21	inactive: -2.3%
CCn1nc(-c2ccccc2)nc2c(=O)n(C)c(=O)nc1-2	inactive: -0.5%
Cc1ccc(-n2c(O)c(C=NCCN3CCOCC3)c(=O)[nH]c2=O)cc1	inactive: 1.3%
COC(=O)C(O)(c1c(C)[nH]c2ccccc12)C(F)(F)F (stereo not drawn)	inactive: -0.9%
CCN(CC)c1ccc(CN2CC=C(c3ccc(F)cc3)CC2)cc1	inactive: -2.4%
O[C@H]1C2CCC1C(N1CCCCC1)CC2 (stereo partly drawn)	inactive: 0.4%
CC(=Nc1ccc2c(c1)CCC2)c1c(O)n(C)c(=O)n(C)c1=O	inactive: -1.7%
CCCCc1nc2ccccc2c(=O)n1-c1ccccc1O	inactive: 10.4%
CCC(COC(=O)NC)NC(=O)Oc1ccccc1 (stereo not drawn)	inactive: -0.5%
COc1ccc(Br)cc1CN1CCN(C(=O)Cc2ccccc2)CC1	inactive: 5.6%
CC(C)c1cccc(C(C)C)c1OCCn1ccnc1	inactive: -2.2%
Cc1cccc(-n2c(O)c(C=NCCCN3CCOCC3)c(=O)[nH]c2=O)c1C	inactive: -5.6%
